In patent publication US12291522B2, “Galectin-3 inhibitors” (BRISTOL-MYERS SQUIBB COMPANY, priority 2020, dated 2025):
Structures were worked out from names or drawings and are uncertain.

The chains behind the UniProt entries cited, without tags or fusion partners.
UniProt P17931, whole entry: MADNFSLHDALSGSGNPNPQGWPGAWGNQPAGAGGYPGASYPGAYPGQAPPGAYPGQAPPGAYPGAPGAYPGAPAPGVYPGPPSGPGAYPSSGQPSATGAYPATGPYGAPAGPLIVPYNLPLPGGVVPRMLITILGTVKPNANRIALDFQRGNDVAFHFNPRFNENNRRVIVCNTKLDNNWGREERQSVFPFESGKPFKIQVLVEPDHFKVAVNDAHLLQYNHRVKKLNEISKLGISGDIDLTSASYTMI
UniProt Q96SW2, whole entry: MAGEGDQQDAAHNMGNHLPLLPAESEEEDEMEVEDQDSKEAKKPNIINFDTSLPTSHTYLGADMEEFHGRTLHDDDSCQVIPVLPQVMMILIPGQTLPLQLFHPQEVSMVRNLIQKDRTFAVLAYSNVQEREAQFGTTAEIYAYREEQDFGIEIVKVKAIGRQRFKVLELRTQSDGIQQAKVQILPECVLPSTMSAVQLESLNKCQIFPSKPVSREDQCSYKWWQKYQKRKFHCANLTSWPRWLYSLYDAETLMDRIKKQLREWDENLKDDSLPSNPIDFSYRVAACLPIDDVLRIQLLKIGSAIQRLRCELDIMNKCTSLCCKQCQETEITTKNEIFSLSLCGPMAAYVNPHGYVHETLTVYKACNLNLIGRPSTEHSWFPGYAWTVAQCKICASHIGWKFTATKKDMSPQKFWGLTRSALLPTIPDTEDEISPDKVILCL

Experiments:
[1] = target: His-tagged recombinant human Gal-3 (hGal-3) (Homo sapiens, UniProt P17931); assay: Gal-3 HTRF assay (His-tagged hGal-3 / B-ASF); conditions: read-out: hGal-3 IC50, 15 nM hGal-3, 15 nM B-ASF
Description: ASSAY BUFFER Composition: 25 mM HEPES, 100 mM NaCl, 0.005% Tween 20, 0.05% BSA prepared in sterile water (all reagents from Sigma).
• Positive Control: 100% DMSO (1 μL)+His-tagged hGal-3 (20 μL)+B-ASF (20 μL)+Anti-His Terbium Antibody (5 μL)+Strep d2 Antibody (5 μL). • Negative Control: 100% DMSO (1 μL)+His-tagged hGal-3 (20 μL)+Anti His Terbium Antibody (5 μL)+Strep d2 Aantibody (5 μL). Stocks Preparation:
PROTOCOL: The Gal-3 assays were performed in 384 white Opti plates in three replicates at room temperature with gentle shaking at 250-300 rpmFrom the original stocks, […] working stock concentrations of His-tagged recombinant human Gal-3 (hGal-3) and that of B-ASF were prepared. From the working stock, 20 μL of hGal-3 (15 nM) and 20 μL B-ASF (15 nM) were added to the plates. In Negative Control, only hGal-3 was added. A concentration range of 50× working stocks were prepared for the compounds in 100% DMSO. Aliquots of luL of the compounds were added to the wells and pre-incubated with 20 μL hGal-3 per well for 30 minutes Then 20 μL B-ASF wereadded and incubated for another 1 hour. […] The assay signal was detected using HTRF screen protocol (Excitation wavelength=340 nm, emission wavelength=615 nm/665 nm) on Envision 2104 Multilabel Reader. Data analysed using Toolset and Curve Master. […]

[2] = target: hCRBN (NanoLuc-CRBN fusion construct in HEK-293 cells) (Homo sapiens, UniProt Q96SW2); assay: CRBN BRET Target Engagement; conditions: read-out: hCRBN IC50; NanoLuc-CRBN transfected HEK-293 cells, BRET with CRBN Probe
Description: CRBN BRET Target Engagement (hCRBN IC50 (μM))
NanoLuc-CRBN fusion construct was transfected in HEK-293 cells using FuGENE HD (Promega) according to the manufacturer's protocol. In brief, Nluc-CRBN was diluted into Transfection Carrier DNA (Promega) 1:10 (mass/mass), to which FuGENE HD was 1:3 (μg DNA:μL FuGENE HD). One part (vol) of DNA:FuGENE HD complexes were combined with 20 parts (vol) of HEK-293 cells suspended at a density of […]. Cells were incubated for ˜20 hr at 37° C./5% CO2. Following transfection, cells were washed and resuspended at 200,000 cells/mL in OptiMEM without phenol red (Gibco).
For BRET measurements, cells were seeded in a 384-well nonbinding surface plate (Corning) plate for a final count of 10,000 cells/well. Compounds were dissolved at 10 mM in dimethylsulfoxide (DMSO) and evaluated at eleven concentrations using a high concentration of […]. CRBN Probe was used for equilibrium measurements, employing a final concentration of approximately EC50-80. For live-cell measurements, 20 nM of CRBN Probe was added. For the live-cell assay conditions, the plates were incubated for 2 hours at 37° C./5% CO2. […] For all BRET experiments, the Envision 2015 (Perkin Elmer) equipped with a BRET2 Enh mirror, BRET 647 nM/75 nM Bandwidth and BC703 460 nM/80 nM Bandwidth filters was used for readouts. Each read was integrated for 0.5 s. […]

## Cc1nc([C@@H]2O[C@H](CO)[C@H](O)[C@H](n3cc(-c4cc(F)c(Cl)c(F)c4)nn3)[C@H]2OCCOc2ccc(C(=O)Nc3ccc4c(c3)CN(C3CCC(=O)NC3=O)C4=O)nc2)n(-c2cc(Cl)ccc2C(F)(F)F)n1 (some centres unmarked)
[1]
  IC50: 74 nM
[2]
  IC50: 214 nM
